These results are taken from patent US20090209510A1, “Novel Method of Treating Hyperlipidemia” (TAKEDA PHARMACEUTICAL COMPANY LIMITED, priority 2005, published 2009).

One series concerns Wistar Fatty rats. The series can be described thus: Lowering effect on plasma triglyceride by use in combination of Compound X and atorvastatin (Example 1). The format is in vivo, rat. Conditions: 30 mg/kg alone, orally once a day for 8 days, overnight fasting, average ± standard error (N = 6). The method, then:
To Wistar Fatty rats (19 week-old female, N=6), 10-mL/kg dose of the vehicle, Compound X (30 mg/kg) alone, atorvastatin (30 mg/kg) alone or combination of both drugs was administered orally for 8 days, once a day.

The next series relates to Hartley guinea pigs. Conditions: atorvastatin 50 mg/kg alone or with Compound X 30 mg/kg, 7 days.

Consider `CC(C)c1c(C(=O)Nc2ccccc2)c(-c2ccccc2)c(-c2ccc(F)cc2)n1CC[C@@H](O)C[C@@H](O)CC(=O)O` [Atorvastatin, atorvastatin], for which the Plasma triglyceride value in the series on Wistar Fatty rats worked out at 192.1 ± 15.2 mg/dL. Further, in the series with Hartley guinea pigs, the “increase in the aspartate aminotransferase in plasma” value is “Significant increase”.
